Our source for the binding values is article doi:10.1101/2024.08.10.607320.

Protein sequences, listed by entry. Tags and fused reporters are not part of them. Residues count along the entry.
UniProt P10997, residues 34-70: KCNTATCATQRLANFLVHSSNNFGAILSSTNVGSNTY
UniProt P02769, residues 25-607: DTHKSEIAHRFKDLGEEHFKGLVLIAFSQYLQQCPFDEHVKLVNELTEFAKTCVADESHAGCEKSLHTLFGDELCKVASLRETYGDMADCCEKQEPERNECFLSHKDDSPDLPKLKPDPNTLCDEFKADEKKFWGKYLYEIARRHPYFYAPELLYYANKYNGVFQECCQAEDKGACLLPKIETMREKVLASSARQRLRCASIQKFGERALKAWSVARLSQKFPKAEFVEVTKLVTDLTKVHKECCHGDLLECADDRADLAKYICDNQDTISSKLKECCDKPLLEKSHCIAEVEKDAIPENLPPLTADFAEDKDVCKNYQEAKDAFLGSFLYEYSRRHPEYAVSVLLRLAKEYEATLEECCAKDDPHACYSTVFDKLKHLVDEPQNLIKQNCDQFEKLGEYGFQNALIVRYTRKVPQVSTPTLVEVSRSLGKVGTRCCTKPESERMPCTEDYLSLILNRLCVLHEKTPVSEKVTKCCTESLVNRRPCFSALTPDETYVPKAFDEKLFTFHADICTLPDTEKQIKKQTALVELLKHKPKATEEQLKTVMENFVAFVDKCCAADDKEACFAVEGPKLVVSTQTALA

The target in the experiment is FITC-labelled Amylin1-37 (human) (UniProt P10997). Description: other fluorescence titration.

No constants are given. Whether binding was seen depends on the method and setting.

As for BSA (from UniProt P02769 25-607), the binding entry was “no binding”.
